{
  "source": "paper PMC4872223",
  "binders": {"B1": {"name": "ROS1, yeast two-hybrid fusion (protein, UniProt Q9SJQ6 1-1393)", "chain": "MEKQRREESSFQQPPWIPQTPMKPFSPICPYTVEDQYHSSQLEERRFVGNKDMSGLDHLSFGDLLALANTASLIFSGQTPIPTRNTEVMQKGTEEVESLSSVSNNVAEQILKTPEKPKRKKHRPKVRREAKPKREPKPRAPRKSVVTDGQESKTPKRKYVRKKVEVSKDQDATPVESSAAVETSTRPKRLCRRVLDFEAENGENQTNGDIREAGEMESALQEKQLDSGNQELKDCLLSAPSTPKRKRSQGKRKGVQPKKNGSNLEEVDISMAQAAKRRQGPTCCDMNLSGIQYDEQCDYQKMHWLYSPNLQQGGMRYDAICSKVFSGQQHNYVSAFHATCYSSTSQLSANRVLTVEERREGIFQGRQESELNVLSDKIDTPIKKKTTGHARFRNLSSMNKLVEVPEHLTSGYCSKPQQNNKILVDTRVTVSKKKPTKSEKSQTKQKNLLPNLCRFPPSFTGLSPDELWKRRNSIETISELLRLLDINREHSETALVPYTMNSQIVLFGGGAGAIVPVTPVKKPRPRPKVDLDDETDRVWKLLLENINSEGVDGSDEQKAKWWEEERNVFRGRADSFIARMHLVQGDRRFTPWKGSVVDSVVGVFLTQNVSDHLSSSAFMSLASQFPVPFVPSSNFDAGTSSMPSIQITYLDSEETMSSPPDHNHSSVTLKNTQPDEEKDYVPSNETSRSSSEIAISAHESVDKTTDSKEYVDSDRKGSSVEVDKTDEKCRVLNLFPSEDSALTCQHSMVSDAPQNTERAGSSSEIDLEGEYRTSFMKLLQGVQVSLEDSNQVSPNMSPGDCSSEIKGFQSMKEPTKSSVDSSEPGCCSQQDGDVLSCQKPTLKEKGKKVLKEEKKAFDWDCLRREAQARAGIREKTRSTMDTVDWKAIRAADVKEVAETIKSRGMNHKLAERIQGFLDRLVNDHGSIDLEWLRDVPPDKAKEYLLSFNGLGLKSVECVRLLTLHHLAFPVDTNVGRIAVRLGWVPLQPLPESLQLHLLEMYPMLESIQKYLWPRLCKLDQKTLYELHYQMITFGKVFCTKSKPNCNACPMKGECRHFASAFASARLALPSTEKGMGTPDKNPLPLHLPEPFQREQGSEVVQHSEPAKKVTCCEPIIEEPASPEPETAEVSIADIEEAFFEDPEEIPTIRLNMDAFTSNLKKIMEHNKELQDGNMSSALVALTAETASLPMPKLKNISQLRTEHRVYELPDEHPLLAQLEKREPDDPCSYLLAIWTPGETADSIQPSVSTCIFQANGMLCDEETCFSCNSIKETRSQIVRGTILIPCRTAMRGSFPLNGTYFQVNEVFADHASSLNPINVPRELIWELPRRTVYFGTSVPTIFKGLSTEKIQACFWKGYVCVRGFDRKTRGPKPLIARLHFPASKLKGQQANLA"}, "B2": {"name": "AE7, yeast two-hybrid fusion (protein, UniProt Q9C9G6 1-157)", "chain": "MVSGLINENPIIYPKKERRLRTDTSITDELTPEPIDQLEIFDHIRDIKDPEHPNTLEDLRVVTEDSVEVDDENSYVRVTFTPTVEHCSMATVIGLCVRVKLLRSLPSRYKIDIRVAPGSHATEDALNKQLNDKERVAAALENPNLVEMVDECLPSEE"}, "B3": {"name": "ROS1, BiFC fusion (protein, UniProt Q9SJQ6 1-1393)", "chain": "B1 chain"}, "B4": {"name": "ROS1, yeast two-hybrid fusion, Q9SJQ6 1-1393 (protein)", "chain": "B1 chain"}, "B5": {"name": "AE7, split-LUC fusion tested against ROS1, Q9C9G6 1-157 (protein)", "chain": "B2 chain"}},
  "key": {"[1]": {"molecular_target": "T1, MET18, yeast two-hybrid fusion (Arabidopsis) (UniProt Q0WVF8)", "T1 sequence": "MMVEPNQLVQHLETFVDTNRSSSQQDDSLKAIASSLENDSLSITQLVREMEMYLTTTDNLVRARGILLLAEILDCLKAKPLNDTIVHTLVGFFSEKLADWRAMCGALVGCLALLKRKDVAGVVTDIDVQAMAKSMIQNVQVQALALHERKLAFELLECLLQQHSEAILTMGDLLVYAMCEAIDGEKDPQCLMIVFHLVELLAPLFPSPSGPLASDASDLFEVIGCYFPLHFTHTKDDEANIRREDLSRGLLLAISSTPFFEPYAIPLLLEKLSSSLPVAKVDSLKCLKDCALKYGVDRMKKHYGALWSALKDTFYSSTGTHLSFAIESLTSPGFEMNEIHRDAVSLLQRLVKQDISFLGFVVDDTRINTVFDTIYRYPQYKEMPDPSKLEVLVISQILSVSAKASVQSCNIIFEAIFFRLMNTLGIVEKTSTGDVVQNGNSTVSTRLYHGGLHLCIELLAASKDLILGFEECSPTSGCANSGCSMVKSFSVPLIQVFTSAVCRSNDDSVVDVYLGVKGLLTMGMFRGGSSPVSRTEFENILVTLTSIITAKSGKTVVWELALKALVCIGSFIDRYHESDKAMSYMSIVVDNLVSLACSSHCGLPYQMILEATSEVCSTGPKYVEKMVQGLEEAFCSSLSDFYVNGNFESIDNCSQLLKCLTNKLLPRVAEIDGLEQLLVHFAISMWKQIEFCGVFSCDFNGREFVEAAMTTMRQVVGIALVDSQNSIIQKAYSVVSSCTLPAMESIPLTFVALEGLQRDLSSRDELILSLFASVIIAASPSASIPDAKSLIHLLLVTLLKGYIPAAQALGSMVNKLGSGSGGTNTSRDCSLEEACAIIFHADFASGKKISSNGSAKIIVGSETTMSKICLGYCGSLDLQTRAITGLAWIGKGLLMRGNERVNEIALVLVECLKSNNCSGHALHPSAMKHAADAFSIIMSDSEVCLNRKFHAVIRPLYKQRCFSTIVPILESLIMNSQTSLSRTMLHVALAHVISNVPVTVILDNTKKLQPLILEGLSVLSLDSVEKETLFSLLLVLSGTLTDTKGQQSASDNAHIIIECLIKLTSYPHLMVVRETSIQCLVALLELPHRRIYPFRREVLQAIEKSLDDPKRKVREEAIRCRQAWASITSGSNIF", "experiment": "two-hybrid; pGBK-T7 (BD) and pGAD-T7 (AD) fusions co-transformed into yeast strain AH109; growth on medium lacking Leu, Trp and His (SD-TLH)"}, "[2]": {"molecular_target": "T2, MET18, BiFC fusion (Arabidopsis) (UniProt Q0WVF8)", "T2 sequence": "T1 sequence", "experiment": "split reporter; BiFC with YFP^N and YFP^C fusions, as described by Walter et al.; YFP signal primarily in the cytoplasm"}, "[3]": {"molecular_target": "T3, AE7, yeast two-hybrid fusion (Arabidopsis), Q9C9G6", "T3 chain": "B2 chain", "experiment": "two-hybrid; pGBK-T7 (BD) and pGAD-T7 (AD) fusions co-transformed into yeast strain AH109; growth on medium lacking Leu, Trp and His (SD-TLH)", "conditions": "remark: other sources report otherwise"}, "[4]": {"molecular_target": "T4, ROS1-nLUC (Arabidopsis), Q9SJQ6", "T4 chain": "B1 chain", "experiment": "split reporter; firefly luciferase complementation imaging (split-LUC); nLUC and cLUC fusions co-infiltrated into Nicotiana benthamiana leaves, with viral p19", "conditions": "remark: other sources report otherwise"}},
  "note": "No constants are given. Whether binding was seen depends on the method and setting. For some assays here: In cells and extracts the contact can be indirect. Some binding calls cover weakened binding; strength is not graded here. Where a sequence is shown, tags or fusion partners need not be part of it.",
  "data": [
    {"binder": "B1", "values": [
      {"measurement": "binding", "setting": "[1]", "value": "binds"}
    ]},
    {"binder": "B2", "values": [
      {"measurement": "binding", "setting": "[1]", "value": "binds"}
    ]},
    {"binder": "B3", "values": [
      {"measurement": "binding", "setting": "[2]", "value": "binds"}
    ]},
    {"binder": "B4", "values": [
      {"measurement": "binding", "setting": "[3]", "value": "no binding"}
    ]},
    {"binder": "B5", "values": [
      {"measurement": "binding", "setting": "[4]", "value": "no binding"}
    ]}
  ]
}
